# Measurements: patent publication US20150083906A1, “BIOMARKERS FOR MONITORING INTERVENTION THERAPIES FOR DIABETES” (MERCK SHARP & DOHME CORP., priority 2012, published 2015)
# Entries after “also recorded” stand apart in the source; their conditions may differ. For at least one compound, name, drawing or mass did not settle the structure.
# Key:
# db/db mice [1] = assay: Study 1: plasma N-glycan profile (GLYCANMAP, MALDI-TOF MS) and HbA1c in rosiglitazone-treated db/db mice; format: in vivo; details: for Direction of Change, Complex glycan 540020 / Direction of Change, Fucosylated glycan 651030 / Direction of Change, Fucosylated glycan 651031 / Direction of Change, High Mannose glycan 520000 (Man5GlcNAc2) / Direction of Change, High Mannose glycan 620000 (Man6GlcNAc2) / Direction of Change, High Mannose glycan 720000 (Man7GlcNAc2) / Direction of Change, High Mannose glycan 820000 (Man8GlcNAc2) / Direction of Change, High Mannose glycan 920000 (Man9GlcNAc2) / Direction of Change, Hybrid glycan 430010 / Direction of Change, Hybrid glycan 530010 / Direction of Change, Hybrid glycan 630010 / Direction of Change, O-Acetylated glycan 540021 / Direction of Change, O-Acetylated glycan 540022 / Direction of Change, O-Acetylated glycan 540031 / Direction of Change, O-Acetylated glycan 540032 / Direction of Change, Fucosylated glycan 761040: plasma, days 3-39, vs vehicle, 10 mg/kg; for Direction of Change, Fucosylated glycan 761040: below LOQ in some samples
# Text: An initial study (Study 1) was an analysis of 160 plasma samples collected from rosiglitazone-treated mice following oral administration of 10 mpk once daily for up to 39 days. Rosigilitazone is an athiazolidinedione class of antidiabetic drug marketed by Glaxo under the trade name AVANDIA. […] These changes, on an individual N-glycan basis, reached high statistical significance (P<0.001) as early as seven days, a full two weeks prior to changes in HbA1c (day seven vs. day 21, respectively). […] The drug-induced N-glycan changes in N-linked glycosylation profiles can be grouped into three structurally-related categories: Fucosylated N-glycans, which were higher in rosiglitazone-treated db/db mice compared to vehicle controls; high-mannose N-glycans, which were lower in rosiglitazone-treated db/db mice compared to vehicle controls; hybrid glycans, which were lower in rosiglitazone-treated db/db mice compared to vehicle controls; and, O-Acetylated N-glycans, which were lower in rosiglitazone-treated db/db mice compared to vehicle controls. Reduction in high-mannose N-glycans was about a 2-3 week earlier leading indicator of the eventual reduced HbA1c amounts expected in an efficacious therapy or treatment regime, and fucosylated N-glycans were an about one week earlier indicator of the eventual reduced HbA1c amounts expected in an efficacious therapy or treatment regime.
# The objective of Study 1 was to evaluate N-linked glycosylation changes in plasma proteins that precede and predict the decrease in glycated hemoglobin (HbA1c) associated with successful resolution of diabetes. Diabetic (db/db) mice were treated once daily with an oral dose of 10 mpk rosiglitazone or with vehicle. Samples included plasma from 20 db/db mice (ten vehicle and ten rosiglitazone) at each of seven time points: 3, 7, 10, 14, 21, 31, and 39 days. A baseline (Day 0) sample was not analyzed in the initial rosiglitazone study, but was included in the subsequent studies described in Examples 2 and 3.
# GLYCANMAP Assay (a registered trademark of Ezose Sciences, Pine Brook, N.J.): A 10 μL aliquot of each plasma sample was spiked with internal standard (700 pmol) to aid in quantitation. The spiked aliquots were analyzed for N-linked glycans using GLYCANMAP methodology, which is based on the methods previously reported by Nishimura, Furukawa and Miura (Nishimura et al., Angew Chem. Int. Ed. Engl., 44: 91-96 (2004); Furukawa et al., Anal. Chem., 80: 1094-1101 (2008); Miura et al., Chem.-A Eur. J, 13: 4797-4804 (2007)). The aliquots were denatured and then digested with trypsin, followed by heat-inactivation. The mixture was then treated with PNGase F. After enzymatic release of N-glycans, aliquots were subjected to solid-phase processing using BLOTGLYCO beads (Sumitomo Bakelite Co., Ltd., Tokyo, Japan). Following capture on the beads, the sialic acid residues were methyl esterified. The N-glycans were simultaneously released from the beads and labeled, and then aliquots of the recovered materials were spotted onto a MALDI target plate. Steps from initial aliquoting to spotting on the MALDI plate were performed using the fully automated SWEETBLOT technology (System Instrument Co., Ltd.).
# MALDI-TOF MS analysis was performed on an Ultraflex III mass spectrometer (Bruker Daltonics, Billerica, Mass.) in the positive-ion, reflector mode using a proprietary matrix composition. Each sample from the BLOTGLYCO processing step was spotted in quadruplicate, and spectra were obtained in an automated manner using the AutoXecute feature in flexControl software. Mass spectra were analyzed using a bioinformatics program. Because the chemical derivatization inherent in the GLYCANMAP technology can produce additional minor species with different mass from that of the parent N-glycan, the data analysis methodologies contain algorithms to correct for this. […]
# db/db mice [2] = assay: Study 2: plasma N-glycan profile in rosiglitazone-treated db/db mice at Day 7; format: in vivo; details: 10 mpk daily, Day 7, vs vehicle, 10 mg/kg
# [3] = 10 mpk oral once daily, listed as Rosiglitazone
compound,measurement,setting,value
CN(CCOc1ccc(CC2SC(=O)NC2=O)cc1)c1ccccn1 (centres unmarked) [rosiglitazone],Earliest time at which individual N-glycan changes reached high statistical significance (P<0.001),"db/db mice [1]; 10 mpk oral once daily, vs vehicle",seven
same,"Direction of Change, Complex glycan 540020",db/db mice [1]; 10 mpk oral once daily,decrease; also recorded: lower
same,"Direction of Change, Fucosylated glycan 651030",db/db mice [1]; 10 mpk oral once daily,higher; also recorded: increase
same,"Direction of Change, Fucosylated glycan 651031",db/db mice [1]; 10 mpk oral once daily,higher; also recorded: increase
same,"Direction of Change, High Mannose glycan 520000 (Man5GlcNAc2)",db/db mice [1]; 10 mpk oral once daily,lower
same,"Direction of Change, High Mannose glycan 620000 (Man6GlcNAc2)",db/db mice [1]; 10 mpk oral once daily,lower
same,"Direction of Change, High Mannose glycan 720000 (Man7GlcNAc2)",db/db mice [1]; 10 mpk oral once daily,lower
same,"Direction of Change, High Mannose glycan 820000 (Man8GlcNAc2)",db/db mice [1]; 10 mpk oral once daily,lower
same,"Direction of Change, High Mannose glycan 920000 (Man9GlcNAc2)",db/db mice [1]; 10 mpk oral once daily,lower
same,"Direction of Change, Hybrid glycan 430010",db/db mice [1]; 10 mpk oral once daily,lower
same,"Direction of Change, Hybrid glycan 530010",db/db mice [1]; 10 mpk oral once daily,lower
same,"Direction of Change, Hybrid glycan 630010",db/db mice [1]; 10 mpk oral once daily,lower
same,"Direction of Change, O-Acetylated glycan 540021",db/db mice [1]; 10 mpk oral once daily,lower
same,"Direction of Change, O-Acetylated glycan 540022",db/db mice [1]; 10 mpk oral once daily,lower
same,"Direction of Change, O-Acetylated glycan 540031",db/db mice [1]; 10 mpk oral once daily,lower
same,"Direction of Change, O-Acetylated glycan 540032",db/db mice [1]; 10 mpk oral once daily,lower
same,"Direction of Change, Fucosylated glycan 761040",db/db mice [1]; 10 mpk oral once daily,higher; also recorded: increase
same,"Direction of Change, Fucosylated glycan 761040",db/db mice [1]; [3],Increased
same,"Direction of Change, Complex glycan 540020",db/db mice [1]; [3],Decreased
same,"Direction of Change, Fucosylated glycan 651030",db/db mice [1]; [3],Increased
same,"Direction of Change, Fucosylated glycan 651031",db/db mice [1]; [3],Increased
same,"Direction of Change, High Mannose glycan 520000 (Man5GlcNAc2)",db/db mice [1]; [3],Decreased
same,"Direction of Change, High Mannose glycan 620000 (Man6GlcNAc2)",db/db mice [1]; [3],Decreased
same,"Direction of Change, High Mannose glycan 720000 (Man7GlcNAc2)",db/db mice [1]; [3],Decreased
same,"Direction of Change, High Mannose glycan 820000 (Man8GlcNAc2)",db/db mice [1]; [3],Decreased
same,"Direction of Change, High Mannose glycan 920000 (Man9GlcNAc2)",db/db mice [1]; [3],Decreased
same,"Direction of Change, Hybrid glycan 430010",db/db mice [1]; [3],Decreased
same,"Direction of Change, Hybrid glycan 530010",db/db mice [1]; [3],Decreased
same,"Direction of Change, Hybrid glycan 630010",db/db mice [1]; [3],Decreased
same,"Direction of Change, O-Acetylated glycan 540021",db/db mice [1]; [3],Decreased
same,"Direction of Change, O-Acetylated glycan 540022",db/db mice [1]; [3],Decreased
same,"Direction of Change, O-Acetylated glycan 540031",db/db mice [1]; [3],Decreased
same,"Direction of Change, O-Acetylated glycan 540032",db/db mice [1]; [3],Decreased
same,Change in O-Acetylated N-glycans (category),db/db mice [1]; vs vehicle controls,lower
same,Change in fucosylated N-glycans (category),db/db mice [1]; vs vehicle controls,higher
same,Change in high-mannose N-glycans (category),db/db mice [1]; vs vehicle controls,lower
same,Change in hybrid glycans (category),db/db mice [1]; vs vehicle controls,lower
same,Change in O-acetylated glycan 540021,db/db mice [2],decreased; also recorded: lower
same,Change in O-acetylated glycan 540022,db/db mice [2],decreased; also recorded: lower
same,Change in O-acetylated glycan 540031,db/db mice [2],decreased; also recorded: lower
same,Change in O-acetylated glycan 540032,db/db mice [2],decreased; also recorded: lower
same,Change in complex glycan 540020,db/db mice [2],decrease; also recorded: lower
same,Change in fucosylated glycan 651030,db/db mice [2],increase; also recorded: higher
same,Change in fucosylated glycan 651031,db/db mice [2],increase; also recorded: higher
same,Change in fucosylated glycan 761040,db/db mice [2],increase; also recorded: higher
same,Change in high mannose glycan 520000 (Man5GlcNAc2),db/db mice [2],decreased; also recorded: lower
same,Change in high mannose glycan 620000 (Man6GlcNAc2),db/db mice [2],decreased; also recorded: lower
same,Change in high mannose glycan 720000 (Man7GlcNAc2),db/db mice [2],decreased; also recorded: lower
same,Change in high mannose glycan 820000 (Man8GlcNAc2),db/db mice [2],decreased; also recorded: lower
same,Change in high mannose glycan 920000 (Man9GlcNAc2),db/db mice [2],decreased; also recorded: lower
same,Change in hybrid glycan 430010,db/db mice [2],decreased; also recorded: lower
same,Change in hybrid glycan 530010,db/db mice [2],decreased; also recorded: lower
same,Change in hybrid glycan 630010,db/db mice [2],decreased; also recorded: lower
